Test results as given in patent US20160000910A1.
These are yes or no findings as the source states them, for the method shown. Some entries that bind do so weakly or less than the wild type. One block for each binder: values may come before it.

How the values were obtained:
[1] = molecular target: biotinylated Aβ1-40 peptide; test: ELISA, biotinylated longer peptides
[2] = molecular target: biotinylated complete Aβ1-42 peptide (human sequence) (human); test: ELISA, biotinylated longer peptides
[3] = molecular target: biotinylated complete Aβ1-42 peptide (human sequence) (human); test: peptide library ELISA, complete Aβ1-42 as positive control
[4] = molecular target: Aβ1-42 peptide fraction consisting primarily of monomers (LMW monomer fraction from SEC); test: ELISA on coated SEC fractions
[5] = molecular target: Aβ1-42 peptide fraction enriched in oligomers (high molecular weight fraction from SEC); test: ELISA on coated SEC fractions

binding [1]: binds | binding [2]: binds | binding [3]: binds
B1: mouse monoclonal antibody ACI-11-Ab-9 (antibody, V domains shown)
VH: QVQLQQSDAELVKPGASVKISCKVSGYTFTDHTIHWMKQRPEQGLEWIGYIYPRDGSTKYNEKFKGKATLTADKSSSTAYMQLNSLTSEDSAVYFCARDYGYAFDYWGQGTTLTVSS
VL: QAVVTQESALTTSPGGTVILTCRSSTGAVTTSNYANWVQEKPDHLFTGLIGGTSNRAPGVPVRFSGSLIGDKAALTITGAQTEDDAMYFCALWYSTHYVFGGGTKVTVL

binding [4]: binds | binding [5]: binds | binding [1]: binds | binding [2]: binds | binding [3]: binds
B2: mouse monoclonal antibody ACI-12-Ab-11 (antibody, V domains shown)
VH: B1 VH
VL: B1 VL
